For some of these results: One purity is given for all peptides; the source may state it once. Some peptides are written in HELM: one residue between dots, names in brackets for other building blocks, links after the first $.
Key:
[1] = general procedure: solution-phase peptide synthesis; HATU, DIPEA; settings: whole synthesis; for final HPLC purity: HPLC Agilent 1200, Onyx monolithic HD-C18, TFA salt; for isolated yield: overall (10 steps), TFA salt
[2] = solution-phase peptide synthesis; HATU, DIPEA; settings: whole synthesis, TFA salt

Substance | final HPLC purity [1] [%] | isolated yield [1] [%] | isolated yield ([2]; overall (10 steps)) [%] | isolated yield ([2]; overall (12 steps)) [%]
H-Lysψ[CH2NH]Lys-Pro-Lys-Ile-TMSAla-OH | > 95 | 14 |  | 
H-Lysψ[CH2NH]Lys-Sip-Tyr-Ile-TMSAla-OH |  |  | 22 | 
H-Lysψ[CH2NH]Lys-Pro-Lys-Ile-Leu-OH | > 95 | 16 |  | 
PEPTIDE1{K.K.P.[dW].I.[TMSAla]}$$$$V2.0 | > 95 |  |  | 11

Source: PMC7291367 (Frontiers in Chemistry, 2020)
